Measured values published in publication PMC11589570, “Critical assessment of LC3/GABARAP ligands used for degrader development and ligandability of LC3/GABARAP binding pockets” (Nature Communications, 2024).
Where “and” joins values, the source holds several entries; their conditions need not be identical. Equal entries are not always repeated. Further values from the same series stand in other lists.

Test system: RPE1 cells
Assay: Cell growth assay (IncuCyte confluence over 72 h)
Format: cell-based
In short: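 Phase confluence (% area covered by cells) imaged every 2 h for 72 h after compound addition; cells in DMEM/10% FBS, seeded 24 h before treatment. Controls were 0.1% DMSO, 250 nM Torin1 and 200 ng/mL Bafilomycin (final). Each point averages three wells.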

`O=C1CC(c2ccc(Cl)c(Cl)c2)CC(=O)C1=CNCCN1CCNCC1` (stereo not drawn) [Cov-3] was tested, and the RPE1 cell growth (100 nM, 16 h) was 27 and 37 and 22, the RPE1 cell growth (100 nM, 18 h) was 26 and 40 and 21 and the RPE1 cell growth (100 nM, 20 h) was 26 and 45 and 24. The RPE1 cell growth (100 nM, 22 h) was 27 and 46 and 25, the RPE1 cell growth (100 nM, 24 h) was 28 and 51 and 26 and the RPE1 cell growth (100 nM, 28 h) was 35 and 60 and 30. For the same molecule, the RPE1 cell growth (100 nM, 32 h) was 39 and 67 and 35, the RPE1 cell growth (100 nM, 34 h) was 42 and 71 and 39 and the RPE1 cell growth (100 nM, 36 h) was 44 and 75 and 39. For the same molecule, the RPE1 cell growth (100 nM, 38 h) was 46 and 81 and 45, the RPE1 cell growth (100 nM, 40 h) was 50 and 85 and 48 and the RPE1 cell growth (100 nM, 42 h) was 57 and 88 and 49. For the same molecule, the RPE1 cell growth (100 nM, 44 h) was 62 and 91 and 53, the RPE1 cell growth (100 nM, 46 h) was 62 and 94 and 60 and the RPE1 cell growth (100 nM, 48 h) was 65 and 96 and 66. For the same molecule, the RPE1 cell growth (100 nM, 50 h) was 74 and 97 and 65, the RPE1 cell growth (100 nM, 52 h) was 79 and 99 and 71 and the RPE1 cell growth (100 nM, 54 h) was 82 and 99 and 76. The RPE1 cell growth (100 nM, 56 h) was 82 and 100 and 79, the RPE1 cell growth (100 nM, 58 h) was 90 and 100 and 83 and the RPE1 cell growth (100 nM, 60 h) was 92 and 100 and 87. For the same molecule, the RPE1 cell growth (100 nM, 62 h) was 94 and 100 and 86, the RPE1 cell growth (100 nM, 66 h) was 97 and 100 and 95 and the RPE1 cell growth (100 nM, 68 h) was 98 and 100 and 95. The RPE1 cell growth (100 nM, 70 h) was 97 and 100 and 98, the RPE1 cell growth (100 nM, 72 h) was 100 and 99 and the RPE1 cell growth (500 nM, 16 h) was 28 and 40 and 22. The RPE1 cell growth (500 nM, 18 h) was 28 and 43 and 23, the RPE1 cell growth (500 nM, 20 h) was 29 and 47 and 25 and the RPE1 cell growth (500 nM, 22 h) was 30 and 48 and 27. For the same molecule, the RPE1 cell growth (500 nM, 24 h) was 31 and 53 and 27, the RPE1 cell growth (500 nM, 26 h) was 34 and 56 and 31 and the RPE1 cell growth (500 nM, 28 h) was 37 and 62 and 35. For the same molecule, the RPE1 cell growth (500 nM, 30 h) was 37 and 65 and 35, the RPE1 cell growth (500 nM, 32 h) was 42 and 70 and 38 and the RPE1 cell growth (500 nM, 34 h) was 45 and 73 and 43. The RPE1 cell growth (500 nM, 36 h) was 48 and 77 and 44, the RPE1 cell growth (500 nM, 38 h) was 51 and 81 and 50 and the RPE1 cell growth (500 nM, 40 h) was 56 and 85 and 54. For the same molecule, the RPE1 cell growth (500 nM, 42 h) was 60 and 89 and 57, the RPE1 cell growth (500 nM, 44 h) was 65 and 92 and 62 and the RPE1 cell growth (500 nM, 46 h) was 67 and 95 and 66. For the same molecule, the RPE1 cell growth (500 nM, 48 h) was 70 and 97 and 67, the RPE1 cell growth (500 nM, 50 h) was 76 and 98 and 75 and the RPE1 cell growth (500 nM, 52 h) was 81 and 99 and 78. The RPE1 cell growth (500 nM, 54 h) was 85 and 99 and 83, the RPE1 cell growth (500 nM, 56 h) was 87 and 100 and 86 and the RPE1 cell growth (500 nM, 58 h) was 91 and 100 and 89. For the same molecule, the RPE1 cell growth (500 nM, 60 h) was 94 and 100 and 92, the RPE1 cell growth (500 nM, 62 h) was 95 and 100 and 92 and the RPE1 cell growth (500 nM, 66 h) was 98 and 100 and 97. The RPE1 cell growth (500 nM, 68 h) was 99 and 100, the RPE1 cell growth (500 nM, 70 h) was 99 and 100 and 98 and the RPE1 cell growth (500 nM, 72 h) was 100. The RPE1 cell growth (1 uM, 14 h) was 20 and 21 and 38, the RPE1 cell growth (1 uM, 16 h) was 22 and 24 and 39 and the RPE1 cell growth (1 uM, 18 h) was 22 and 25 and 43. For the same molecule, the RPE1 cell growth (1 uM, 20 h) was 25 and 26 and 46, the RPE1 cell growth (1 uM, 22 h) was 26 and 27 and 49 and the RPE1 cell growth (1 uM, 24 h) was 28 and 29 and 53. For the same molecule, the RPE1 cell growth (1 uM, 26 h) was 31 and 32 and 57, the RPE1 cell growth (1 uM, 28 h) was 34 and 61 and the RPE1 cell growth (1 uM, 30 h) was 37 and 36 and 66. For the same molecule, the RPE1 cell growth (1 uM, 32 h) was 40 and 39 and 71, the RPE1 cell growth (1 uM, 34 h) was 43 and 74 and the RPE1 cell growth (1 uM, 36 h) was 45 and 46 and 77. For the same molecule, the RPE1 cell growth (1 uM, 38 h) was 48 and 82, the RPE1 cell growth (1 uM, 40 h) was 53 and 52 and 87 and the RPE1 cell growth (1 uM, 42 h) was 56 and 55 and 90. For the same molecule, the RPE1 cell growth (1 uM, 44 h) was 61 and 62 and 93, the RPE1 cell growth (1 uM, 46 h) was 65 and 96 and the RPE1 cell growth (1 uM, 48 h) was 69 and 67 and 98. The RPE1 cell growth (1 uM, 50 h) was 72 and 74 and 99, the RPE1 cell growth (1 uM, 52 h) was 78 and 77 and 99 and the RPE1 cell growth (1 uM, 54 h) was 81 and 82 and 100. For the same molecule, the RPE1 cell growth (1 uM, 56 h) was 84 and 86 and 100, the RPE1 cell growth (1 uM, 58 h) was 87 and 89 and 100 and the RPE1 cell growth (1 uM, 60 h) was 90 and 93 and 100. The RPE1 cell growth (1 uM, 62 h) was 92 and 94 and 100, the RPE1 cell growth (1 uM, 64 h) was 95 and 96 and 67 and the RPE1 cell growth (1 uM, 66 h) was 98 and 100. For the same molecule, the RPE1 cell growth (1 uM, 68 h) was 99 and 98 and 100, the RPE1 cell growth (1 uM, 70 h) was 99 and 100 and the RPE1 cell growth (1 uM, 72 h) was 99 and 100. For the same molecule, the RPE1 cell growth (3 uM, 14 h) was 28 and 34 and 22, the RPE1 cell growth (3 uM, 16 h) was 31 and 36 and 23 and the RPE1 cell growth (3 uM, 18 h) was 33 and 39 and 24. The RPE1 cell growth (3 uM, 20 h) was 33 and 44 and 28, the RPE1 cell growth (3 uM, 22 h) was 34 and 44 and 28 and the RPE1 cell growth (3 uM, 24 h) was 36 and 50 and 30. The RPE1 cell growth (3 uM, 26 h) was 39 and 54 and 33, the RPE1 cell growth (3 uM, 28 h) was 42 and 58 and 37 and the RPE1 cell growth (3 uM, 30 h) was 44 and 61 and 39. For the same molecule, the RPE1 cell growth (3 uM, 32 h) was 48 and 67 and 43, the RPE1 cell growth (3 uM, 34 h) was 52 and 71 and 47 and the RPE1 cell growth (3 uM, 36 h) was 57 and 74 and 51. For the same molecule, the RPE1 cell growth (3 uM, 38 h) was 59 and 79 and 54, the RPE1 cell growth (3 uM, 40 h) was 62 and 84 and 58 and the RPE1 cell growth (3 uM, 42 h) was 66 and 88 and 62. For the same molecule, the RPE1 cell growth (3 uM, 44 h) was 72 and 91 and 67, the RPE1 cell growth (3 uM, 46 h) was 74 and 95 and 71 and the RPE1 cell growth (3 uM, 48 h) was 78 and 96 and 75. For the same molecule, the RPE1 cell growth (3 uM, 50 h) was 83 and 98 and 78, the RPE1 cell growth (3 uM, 52 h) was 87 and 99 and 83 and the RPE1 cell growth (3 uM, 54 h) was 90 and 99 and 86. The RPE1 cell growth (3 uM, 56 h) was 92 and 100 and 89, the RPE1 cell growth (3 uM, 58 h) was 95 and 100 and 93 and the RPE1 cell growth (3 uM, 60 h) was 97 and 100 and 95. For the same molecule, the RPE1 cell growth (3 uM, 62 h) was 97 and 100 and 96, the RPE1 cell growth (3 uM, 64 h) was 98 and the RPE1 cell growth (3 uM, 66 h) was 99 and 100. For the same molecule, the RPE1 cell growth (3 uM, 68 h) was 99 and 100, the RPE1 cell growth (3 uM, 70 h) was 99 and 100 and the RPE1 cell growth (3 uM, 72 h) was 100. For the same molecule, the RPE1 cell growth (5 uM, 14 h) was 25 and 35 and 22, the RPE1 cell growth (5 uM, 16 h) was 27 and 35 and 24 and the RPE1 cell growth (5 uM, 18 h) was 28 and 39 and 25. The RPE1 cell growth (5 uM, 20 h) was 29 and 43 and 26, the RPE1 cell growth (5 uM, 22 h) was 32 and 44 and 27 and the RPE1 cell growth (5 uM, 24 h) was 33 and 49 and 30. For the same molecule, the RPE1 cell growth (5 uM, 26 h) was 35 and 51 and 32, the RPE1 cell growth (5 uM, 28 h) was 36 and 56 and the RPE1 cell growth (5 uM, 30 h) was 39 and 62. For the same molecule, the RPE1 cell growth (5 uM, 32 h) was 42 and 67, the RPE1 cell growth (5 uM, 34 h) was 45 and 71 and 46 and the RPE1 cell growth (5 uM, 36 h) was 47 and 73 and 49. The RPE1 cell growth (5 uM, 38 h) was 50 and 78 and 52, the RPE1 cell growth (5 uM, 40 h) was 54 and 82 and 57 and the RPE1 cell growth (5 uM, 42 h) was 58 and 85 and 60. The RPE1 cell growth (5 uM, 44 h) was 61 and 90 and 64, the RPE1 cell growth (5 uM, 46 h) was 65 and 93 and 68 and the RPE1 cell growth (5 uM, 48 h) was 70 and 96 and 73. The RPE1 cell growth (5 uM, 50 h) was 74 and 98 and 76, the RPE1 cell growth (5 uM, 52 h) was 79 and 99 and 81 and the RPE1 cell growth (5 uM, 54 h) was 83 and 99 and 87. For the same molecule, the RPE1 cell growth (5 uM, 56 h) was 85 and 100 and 89, the RPE1 cell growth (5 uM, 58 h) was 89 and 100 and 92 and the RPE1 cell growth (5 uM, 60 h) was 92 and 100 and 94. The RPE1 cell growth (5 uM, 62 h) was 93 and 100 and 96, the RPE1 cell growth (5 uM, 64 h) was 96 and 100 and 98 and the RPE1 cell growth (5 uM, 66 h) was 98 and 100 and 99. For the same molecule, the RPE1 cell growth (5 uM, 68 h) was 99 and 100, the RPE1 cell growth (5 uM, 70 h) was 99 and 100 and the RPE1 cell growth (5 uM, 72 h) was 100. For the same molecule, the RPE1 cell growth (10 uM, 14 h) was 27 and 35 and 25, the RPE1 cell growth (10 uM, 16 h) was 29 and 34 and 27 and the RPE1 cell growth (10 uM, 18 h) was 30 and 38 and 27. For the same molecule, the RPE1 cell growth (10 uM, 20 h) was 33 and 41 and 30, the RPE1 cell growth (10 uM, 22 h) was 34 and 43 and 30 and the RPE1 cell growth (10 uM, 24 h) was 36 and 47 and 34. For the same molecule, the RPE1 cell growth (10 uM, 26 h) was 39 and 51 and 36, the RPE1 cell growth (10 uM, 28 h) was 41 and 56 and the RPE1 cell growth (10 uM, 30 h) was 42 and 59 and 44. For the same molecule, the RPE1 cell growth (10 uM, 32 h) was 46 and 64 and 47, the RPE1 cell growth (10 uM, 34 h) was 50 and 68 and 51 and the RPE1 cell growth (10 uM, 36 h) was 53 and 72. The RPE1 cell growth (10 uM, 38 h) was 56 and 77 and 58, the RPE1 cell growth (10 uM, 40 h) was 59 and 80 and 62 and the RPE1 cell growth (10 uM, 42 h) was 63 and 83 and 66. The RPE1 cell growth (10 uM, 44 h) was 67 and 89 and 70, the RPE1 cell growth (10 uM, 46 h) was 71 and 92 and 75 and the RPE1 cell growth (10 uM, 48 h) was 75 and 95 and 79. For the same molecule, the RPE1 cell growth (10 uM, 50 h) was 79 and 97 and 82, the RPE1 cell growth (10 uM, 52 h) was 83 and 98 and 86 and the RPE1 cell growth (10 uM, 54 h) was 87 and 99 and 90. The RPE1 cell growth (10 uM, 56 h) was 90 and 99 and 93, the RPE1 cell growth (10 uM, 58 h) was 93 and 99 and 95 and the RPE1 cell growth (10 uM, 60 h) was 95 and 100 and 97. For the same molecule, the RPE1 cell growth (10 uM, 62 h) was 96 and 100 and 98, the RPE1 cell growth (10 uM, 64 h) was 97 and 100 and 99 and the RPE1 cell growth (10 uM, 66 h) was 98 and 100. For the same molecule, the RPE1 cell growth (10 uM, 68 h) was 99 and 100, the RPE1 cell growth (10 uM, 70 h) was 99 and 100 and the RPE1 cell growth (10 uM, 72 h) was 100.
